Consider one substance from paper PMC7235163.

Chains of the proteins cited; added tags and fusions are not shown.
UniProt O14936: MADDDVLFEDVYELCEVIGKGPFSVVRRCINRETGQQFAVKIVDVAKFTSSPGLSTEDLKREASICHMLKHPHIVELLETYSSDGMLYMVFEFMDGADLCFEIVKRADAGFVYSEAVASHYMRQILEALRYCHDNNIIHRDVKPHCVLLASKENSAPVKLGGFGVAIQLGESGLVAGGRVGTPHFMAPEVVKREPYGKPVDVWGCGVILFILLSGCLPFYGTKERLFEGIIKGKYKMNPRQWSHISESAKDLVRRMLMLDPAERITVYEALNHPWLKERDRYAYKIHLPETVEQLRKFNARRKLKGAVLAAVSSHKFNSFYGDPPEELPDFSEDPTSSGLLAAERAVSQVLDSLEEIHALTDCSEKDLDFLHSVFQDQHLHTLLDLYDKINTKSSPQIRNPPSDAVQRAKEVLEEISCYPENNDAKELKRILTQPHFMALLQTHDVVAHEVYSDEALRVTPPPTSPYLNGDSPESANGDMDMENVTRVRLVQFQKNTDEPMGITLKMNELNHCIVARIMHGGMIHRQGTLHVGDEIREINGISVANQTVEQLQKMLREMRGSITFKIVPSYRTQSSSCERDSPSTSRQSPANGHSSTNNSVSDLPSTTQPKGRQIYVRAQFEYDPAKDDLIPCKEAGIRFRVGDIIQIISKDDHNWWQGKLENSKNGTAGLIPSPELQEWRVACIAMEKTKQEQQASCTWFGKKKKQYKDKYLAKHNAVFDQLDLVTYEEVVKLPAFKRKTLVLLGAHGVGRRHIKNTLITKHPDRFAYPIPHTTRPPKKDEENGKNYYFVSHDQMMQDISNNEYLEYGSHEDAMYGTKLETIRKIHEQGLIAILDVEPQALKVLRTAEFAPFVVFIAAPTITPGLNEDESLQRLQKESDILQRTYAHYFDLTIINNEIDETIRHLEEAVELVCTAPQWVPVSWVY
UniProt Q8WUM4: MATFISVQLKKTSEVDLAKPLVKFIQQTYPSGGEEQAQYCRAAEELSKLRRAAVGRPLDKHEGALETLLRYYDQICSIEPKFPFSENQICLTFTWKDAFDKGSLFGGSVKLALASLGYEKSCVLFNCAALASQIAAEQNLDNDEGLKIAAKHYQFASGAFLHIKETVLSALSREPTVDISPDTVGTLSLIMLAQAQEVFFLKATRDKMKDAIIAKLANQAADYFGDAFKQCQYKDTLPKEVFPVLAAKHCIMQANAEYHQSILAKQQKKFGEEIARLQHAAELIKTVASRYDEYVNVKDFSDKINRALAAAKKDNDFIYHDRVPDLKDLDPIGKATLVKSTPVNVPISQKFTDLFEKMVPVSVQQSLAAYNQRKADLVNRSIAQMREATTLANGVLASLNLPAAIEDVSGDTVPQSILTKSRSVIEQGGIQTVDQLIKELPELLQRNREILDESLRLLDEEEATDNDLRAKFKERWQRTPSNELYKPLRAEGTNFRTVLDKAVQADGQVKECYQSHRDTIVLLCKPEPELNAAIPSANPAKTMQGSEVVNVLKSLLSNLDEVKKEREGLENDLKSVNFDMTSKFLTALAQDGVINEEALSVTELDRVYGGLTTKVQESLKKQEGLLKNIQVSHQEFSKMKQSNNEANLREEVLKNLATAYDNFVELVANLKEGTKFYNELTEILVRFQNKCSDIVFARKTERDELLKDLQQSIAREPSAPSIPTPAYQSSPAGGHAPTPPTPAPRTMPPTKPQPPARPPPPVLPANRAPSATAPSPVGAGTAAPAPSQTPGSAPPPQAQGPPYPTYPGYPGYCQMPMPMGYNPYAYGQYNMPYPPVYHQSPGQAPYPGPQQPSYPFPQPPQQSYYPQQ

Results are given in words; binding and its absence hold for the method and conditions named. Binding seen in cells or lysates may run through a third protein. Some binding calls cover weakened binding; strength is not graded here.

In the experiment the target is calcium/calmodulin-dependent serine/threonine kinase (CASK) (human (endogenous in M2 macrophages from healthy donors)) (UniProt O14936). Nature of the experiment: co-IP; reciprocal co-immunoprecipitation from M2 macrophage lysates (25 mmol/L HEPES, 150 mmol/L NaCl, 1% Brij 97, 4°C), antibodies against CASK or ALIX, Protein G-Sepharose, western blot. (In general: A western blot detects proteins with antibodies after separation by electrophoresis.)

With ALIX (from UniProt Q8WUM4 1-868), the binding entry was “binds”.
